{"source": "PubChem BioAssay AID504784 (Drosophila RNAi Screening Center, 2011)", "aim": "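Fly genes whose silencing alters how much lipid cells keep in droplets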 (primary screen)", "cells": "Drosophila Kc167 embryonic cells", "reagent": "long dsRNA against Drosophila genes, about 250 ng dsRNA per well", "time to read-out": "4 days", "conditions": "cells fed 400 µM oleic acid bound to BSA", "detection": "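Microscope images give a droplet-to-nucleus area ratio, taken as log and converted to a screen-wide B-score; higher values mean greater lipid storage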", "reading the numbers": "droplet/nuclear area B-score: higher = more stored lipid (overstorage)", "note": "The deposit covers about 17,000 reagents; shown is an unselected part of those that have a named target and a result. 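Each column is one replicate's B-score; the combined score over replicates was not deposited, so single values may mislead.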 Reagent sequences are not shown."}
The first 2 records as a preview:
{"target gene": "Hacd1 (3-hydroxyacyl-CoA dehydratase 1)", "PubChem SID": "SID104182780", "droplet/nuclear area B-score, replicate 1": -0.00863, "droplet/nuclear area B-score, replicate 2": -0.671}
{"target gene": "milt (milton)", "PubChem SID": "SID104180757", "droplet/nuclear area B-score, replicate 1": -0.407, "droplet/nuclear area B-score, replicate 2": 0.764}

Main list, from the start:
{"target gene": "Hacd1 (3-hydroxyacyl-CoA dehydratase 1)", "PubChem SID": "SID104182780", "droplet/nuclear area B-score, replicate 1": -0.00863, "droplet/nuclear area B-score, replicate 2": -0.671}
{"target gene": "milt (milton)", "PubChem SID": "SID104180757", "droplet/nuclear area B-score, replicate 1": -0.407, "droplet/nuclear area B-score, replicate 2": 0.764}
{"target gene": "milt (milton)", "PubChem SID": "SID104180758", "droplet/nuclear area B-score, replicate 1": -1.42, "droplet/nuclear area B-score, replicate 2": -0.127}
{"target gene": "milt (milton)", "PubChem SID": "SID104182073", "droplet/nuclear area B-score, replicate 1": 0.00924, "droplet/nuclear area B-score, replicate 2": -2.06}
{"target gene": "eIF3e (eukaryotic translation initiation factor 3 subunit e)", "PubChem SID": "SID104190991", "droplet/nuclear area B-score, replicate 1": 3.25, "droplet/nuclear area B-score, replicate 2": 3.7}
{"target gene": "CG4553", "PubChem SID": "SID104195387", "droplet/nuclear area B-score, replicate 1": 1.86, "droplet/nuclear area B-score, replicate 2": 1.14}
{"target gene": "CG5790", "PubChem SID": "SID104182688", "droplet/nuclear area B-score, replicate 1": 0.482, "droplet/nuclear area B-score, replicate 2": 0.54}
{"target gene": "CG14294", "PubChem SID": "SID104194566", "droplet/nuclear area B-score, replicate 1": 1.24, "droplet/nuclear area B-score, replicate 2": -0.111}
{"target gene": "Smyd4-2 (SET and MYND domain containing, class 4, member 2)", "PubChem SID": "SID104189918", "droplet/nuclear area B-score, replicate 1": 0.713, "droplet/nuclear area B-score, replicate 2": -0.207}
{"target gene": "Gal (beta galactosidase)", "PubChem SID": "SID104182926", "droplet/nuclear area B-score, replicate 1": 1.38, "droplet/nuclear area B-score, replicate 2": -0.0371}
{"target gene": "Cap-D3 (Chromosome associated protein D3)", "PubChem SID": "SID104182141", "droplet/nuclear area B-score, replicate 1": -1.08, "droplet/nuclear area B-score, replicate 2": 0.0645}
{"target gene": "RpL40 (Ribosomal protein L40)", "PubChem SID": "SID104180574", "droplet/nuclear area B-score, replicate 1": 7.81, "droplet/nuclear area B-score, replicate 2": 8.7}
{"target gene": "CG8888", "PubChem SID": "SID104187086", "droplet/nuclear area B-score, replicate 1": -4.53, "droplet/nuclear area B-score, replicate 2": 0.725}
{"target gene": "CG8888", "PubChem SID": "SID104187087", "droplet/nuclear area B-score, replicate 1": 0.777, "droplet/nuclear area B-score, replicate 2": -1.71}
{"target gene": "cnn (centrosomin)", "PubChem SID": "SID104185214", "droplet/nuclear area B-score, replicate 1": -1.23, "droplet/nuclear area B-score, replicate 2": 0.0757}
{"target gene": "cnn (centrosomin)", "PubChem SID": "SID104187388", "droplet/nuclear area B-score, replicate 1": -0.56, "droplet/nuclear area B-score, replicate 2": 1.42}
